# Experimental data as given in publication doi:10.1101/2024.04.01.586839.
# No constants are given. Whether binding was seen depends on the method and setting. In cells and extracts the contact can be indirect. Some entries that bind do so weakly or less than the wild type. Where a sequence is shown, tags or fusion partners need not be part of it.
# Biological target: T1, HA-tagged human HHIP (hedgehog interacting protein) (human) (UniProt Q96QV1)
# T1 sequence: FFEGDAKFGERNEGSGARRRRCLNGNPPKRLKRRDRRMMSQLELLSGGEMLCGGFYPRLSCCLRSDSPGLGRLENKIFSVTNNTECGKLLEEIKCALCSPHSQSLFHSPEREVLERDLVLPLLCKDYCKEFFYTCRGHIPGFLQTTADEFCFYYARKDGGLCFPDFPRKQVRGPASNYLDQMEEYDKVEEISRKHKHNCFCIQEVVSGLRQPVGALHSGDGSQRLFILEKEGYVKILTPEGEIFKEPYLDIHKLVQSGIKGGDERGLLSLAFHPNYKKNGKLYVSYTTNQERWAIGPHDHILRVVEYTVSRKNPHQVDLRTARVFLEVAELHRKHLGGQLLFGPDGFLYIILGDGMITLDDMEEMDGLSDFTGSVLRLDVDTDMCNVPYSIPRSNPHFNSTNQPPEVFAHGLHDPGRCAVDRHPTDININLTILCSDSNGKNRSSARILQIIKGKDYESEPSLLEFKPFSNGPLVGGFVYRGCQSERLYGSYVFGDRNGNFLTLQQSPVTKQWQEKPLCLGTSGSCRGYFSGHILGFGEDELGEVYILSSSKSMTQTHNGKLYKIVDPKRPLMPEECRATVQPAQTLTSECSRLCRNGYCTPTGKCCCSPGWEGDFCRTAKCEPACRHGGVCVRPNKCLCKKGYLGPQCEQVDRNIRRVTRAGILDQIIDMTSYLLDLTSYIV
# Assay: co-IP
substance,measurement,value
TP53 (from UniProt P04637 1-393),binding,binds
